The experiment has as its system NCI/ADR-RES complex spheroid viability. As to the kind of experiment: Anticancer human tumor NCI/ADR-RES cell line growth inhibition.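 Also: spheroids exposed to compounds for 7 days; 100% = DMSO vehicle treated spheroids.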 As to conditions: hits give low values. An excerpt: Multicellular complex tumor spheroid response to LSD1 Inhibitor Iadademstat in combination with a variety of drugs and investigational agents in selected tumor cell lines
The current study was undertaken to assess response to LSD1 inhibitors in combination with standard-of-care drugs and investigational agents in solid tumor complex spheroid models as well as in the K-562 leukemia. Complex spheroids include a stromal component modeled by human endothelial cells (HUVEC) and fibroblasts modeled by human mesenchymal stem cells (MSCs). The concentration ranges selected for each drug and investigational agent were based upon clinically achievable concentrations if the clinical Cmax of the agent was known.
Compounds. The drugs and investigational agents used in this study are listed on Table 1. All of the agents used, including staurosporine (NSC755774) and gemcitabine (NSC613327), were obtained from the Developmental Therapeutics Program, NCI. FDA-approved anticancer drugs are available from the NCI at http://dtp.nci.nih.gov/branches/dscb/oncology_drugset_explanation.html. Drugs and investigational agents were >95% pure by proton nuclear magnetic resonance (NMR) and liquid chromatography/mass spectrometry (LC/MS). Stock solutions were prepared at 400x in DMSO, stored at -70 degrees C, and diluted in fresh medium prior to their use. The final concentration of DMSO in cell culture wells never exceeded 0.25% (v/v). The FDA-approved anticancer drug set is available from the Developmental Therapeutics Program at https://dtp.cancer.gov/organization/dscb/obtaining/available_plates.htm. All drugs and investigational agents were tested over a range starting from a high concentration at or near the clinical Cmax and decreasing in half-log increments. If the clinical Cmax for an agent had not been determined, the highest concentration tested was 10 microM.
Cell Lines. […]

Each structure is given as a SMILES string. Several values for one entry are separate records, joined by “and”; a condition that tells them apart may be missing. Equal entries are not always repeated. The source gives many values for each of these; only a part stands here.

Take `NC1CCC(NC2CC2c2ccccc2)CC1` (stereo not drawn): the viability, T/C was 103% [middle of 22 runs] (compound 0.316 µM); 88.7% and 104% (compound 10 µM).

`NC1CC1c1ccc(-c2cccc(O)c2)cc1` (stereo not drawn): the viability, T/C (compound 0.1 µM) was 102% [middle of 21 runs].

The values above are taken from PubChem BioAssay AID1918955 (Molecular Pharmacology Branch, DTP, NCI, 2023).
